This passage reports cell viability results from the supplement of paper PMC11150407.

Where “and” joins values, the source holds several entries; their conditions need not be identical. Equal entries are not always repeated. About 180 (8.6%) of roughly 2,100 compounds showed an effect of 50% or more. Some of the results follow.

The subject of the experiment is MOLM1 and UCSD/AML1 (averaged). Briefly: cell viability relative to DMSO control (POC); higher = less growth inhibition. To be noted: 1 µM; 72 h. The protocol:
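Primary viability screen in the 3q26 EVI1-high AML cell lines MOLM1 and UCSD/AML1 (1.5e3 cells/well, 384-well), compounds at 1 uM for 72 h. ATP CellTiter-Glo read-out given as percent of viable cells over DMSO control (POC), averaged over duplicates. DMSO was the negative control and 5 uM etoposide the positive control. This mapping covers the MicroSource Spectrum and Selleck anticancer libraries (drug names).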
Broadly, the cell viability is a read-out of living cells in per cent, often relative to untreated cells. For the molecule `Cc1cccc(Nc2ccccc2C(=O)O)c1C`, the cell viability amounted to 104%.

As to `CC(N)C(=O)OC(C)(C)Cc1ccc(Cl)cc1` (stereo not drawn), the cell viability came to 99%.

In the case of `C=CCSCC=C`, the cell viability worked out at 97.3%.

On to `NNC(=O)c1ccncc1`, for which the cell viability amounted to 121%.

As for `CCC(=O)OCC(=O)[C@@]1(OC(=O)CC)[C@@H](C)C[C@H]2[C@@H]3CCC4=CC(=O)C=C[C@]4(C)[C@@]3(F)[C@@H](O)C[C@@]21C`, the cell viability amounted to 66%.

With `CC1(C)O[C@@H]2C[C@H]3[C@@H]4C[C@H](F)C5=CC(=O)CC[C@]5(C)[C@H]4[C@@H](O)C[C@]3(C)[C@]2(C(=O)CO)O1`, the cell viability is 70.7%.

For the molecule `C[C@H]1C[C@H]2[C@@H]3CCC4=CC(=O)C=C[C@]4(C)[C@H]3C(=O)C[C@]2(C)[C@@]1(O)C(=O)CO` [Betapar (Meprednisone)], the cell viability was found to be 59%.

For the molecule `CCCCc1oc2ccccc2c1C(=O)c1cc(I)c(OCCN(CC)CC)c(I)c1`, the cell viability is 102%.

On to `O=C(O)c1cccnc1`, for which the cell viability was determined as 95%.

As for `Cc1cccc(N(C)C(=S)Oc2ccc3ccccc3c2)c1`, the cell viability was 100%.

Regarding `C=CCNC1=C2C[C@@H](C)C[C@H](OC)[C@H](O)[C@@H](C)/C=C(\C)[C@H](OC(N)=O)[C@@H](OC)/C=C\C=C(/C)C(=O)NC(=CC1=O)C2=O` [17-AAG (Tanespimycin)], the cell viability worked out at 29.1%.

On to `CN1CCN(c2ccc3nc(-c4c(N)c5c(F)cccc5[nH]c4=O)[nH]c3c2)CC1` [Dovitinib (TKI-258)], for which the cell viability was 26.7%.

Turning to `CCN1CCCC1CNC(=O)c1cc(S(N)(=O)=O)ccc1OC` (stereo not drawn), the cell viability is 90.8%.

On to `O=C(O)c1cc2cc(F)ccc2[nH]1`, for which the cell viability is 119%.

For `CC(C)=CCc1c(O)cc2oc(C)cc(=O)c2c1O`, the cell viability turned out to be 94.1%.

Regarding `CC12CC3CC(C)(C1)CC(N)(C3)C2`, the cell viability was 100%.

As for `COc1ccc(-c2cc(=O)c3c(OC)c(OC)c(OC)c(OC)c3o2)cc1`, the cell viability is 89.9%.

Regarding `Cc1cccc(-c2nn3c(c2-c2ccnc4ccc(C(N)=O)cc24)CCC3)n1`, the cell viability came out at 96.2%.

With `Nc1ccc(S(=O)(=O)O)cc1.Nc1ccc(S(=O)(=O)O)cc1.[Zn]`, the cell viability turned out to be 99.2%.

With `C#C[C@]1(O)CC[C@H]2[C@@H]3CCC4=Cc5oncc5C[C@]4(C)[C@H]3CC[C@@]21C`, the cell viability came out at 98.2%.

On to `CCOc1ccc(Cc2nccc3cc(OCC)c(OCC)cc23)cc1OCC`, for which the cell viability was 89.2%.

In the case of `O=C(Nc1ccc([N+](=O)[O-])cc1Cl)c1cc(Cl)ccc1O`, the cell viability came out at 103%.

In the case of `O=C(Nc1cccnc1)N1CCC(Cc2cccc(Oc3ccc(C(F)(F)F)cn3)c2)CC1`, the cell viability worked out at 56.7%.

Regarding `CSCCC(N)C(=O)NC(CC(C)C)C(=O)NC(Cc1ccccc1)C(=O)O` (stereo not drawn), the cell viability is 97.7%.

Turning to `CN1CCCN=C1/C=C/c1cccs1`, the cell viability is 102%.

In the case of `CO[C@H]1C[C@@H]2CC[C@@H](C)[C@@](O)(O2)C(=O)C(=O)N2CCCC[C@H]2C(=O)O[C@H]([C@H](C)C[C@@H]2CC[C@@H](OC(=O)C(C)(CO)CO)[C@H](OC)C2)CC(=O)[C@H](C)/C=C(\C)[C@@H](O)[C@@H](OC)C(=O)[C@H](C)C[C@H](C)/C=C/C=C/C=C/1C`, the cell viability came out at 11%.

In the case of `CCC[C@@H]1C[C@@H](C(=O)N[C@@H]([C@H]2O[C@H](SC)[C@H](O)[C@@H](O)[C@H]2O)[C@@H](C)O)N(C)C1`, the cell viability was 104%.

With `C=C1C(N)CC2CC1C2(C)C` (stereo not drawn) [3-AMINO-beta-PINENE], the cell viability was 96.3%.

For the molecule `C=CC1=C(C)/C(=C/c2[nH]c(Cc3[nH]c(/C=C4\NC(=O)C(C)=C4C=C)c(C)c3CCC(=O)O)c(CCC(=O)O)c2C)NC1=O`, the cell viability amounted to 91.9%.

Turning to `Cc1ccc(C(=O)N(CCCN)[C@@H](c2oc3cc(Cl)ccc3c(=O)c2Cc2ccccc2)C(C)C)cc1`, the cell viability was 13.4%.

With `CC(C)(C)NC(=O)[C@H]1CC[C@H]2[C@@H]3CC[C@H]4NC(=O)C=C[C@]4(C)[C@H]3CC[C@]12C`, the cell viability was 98.2%.

In the case of `C=C1CC[C@H](O)C/C1=C/C=C1\CCC[C@]2(C)[C@@H]([C@H](C)/C=C/[C@H](C)C(C)C)CC[C@@H]12`, the cell viability is 101%.

`CC(C)=CCCC1(C)C=Cc2c(O)c3c(c(CC=C(C)C)c2O1)OC12C(=CCCC1C(C)(C)O[C@@]2(C/C=C(\C)C(=O)O)C(=O)O)C3=O` (stereo partly drawn): the cell viability was determined as 103%.

With `Nc1nc(N)c2nc(-c3ccccc3)c(N)nc2n1`, the cell viability came to 99.5%.

With `C=C1C(=O)O[C@H]2[C@H]1CC/C(C)=C/CC[C@@]1(C)O[C@@H]21`, the cell viability stood at 88.5%.

On to `COc1cccc(O)c1O`, for which the cell viability amounted to 110%.

`CCCCOc1ccc(C(=O)CCN2CCCCC2)cc1`: the cell viability was 104%.

For the molecule `CC(C)(C)CC(C)(C)c1ccc(OCCOCC[N+](C)(C)Cc2ccccc2)cc1`, the cell viability was 97.1%.

On to `COc1ccc(CCC(=O)c2c(O)cc(O[C@@H]3O[C@H](CO)[C@@H](O)[C@H](O)[C@H]3O[C@@H]3O[C@@H](C)[C@H](O)[C@@H](O)[C@H]3O)cc2O)cc1O`, for which the cell viability is 97.1%.

Turning to `C[C@]12CC[C@H](O)CC1=CC[C@@H]1[C@@H]2CC[C@]2(C)C(c3cccnc3)=CC[C@@H]12` [Abiraterone (CB-7598)], the cell viability was 102%.

Take `Cn1nnc2c(C(N)=O)ncn2c1=O` [Temozolomide]: the cell viability was found to be 93.3%.

Turning to `OC(CCN1CCCC1)(c1ccccc1)C1CCCCC1` (stereo not drawn), the cell viability worked out at 107%.

`CC(=O)/C(=C\c1ccccc1)CC(=O)O`: the cell viability was determined as 118%.

Consider `CC(C)=CCC[C@@H](C)[C@@H]1CC[C@]2(C)C3=C(CC[C@@]12C)[C@@]1(C)CC[C@H](O)C(C)(C)[C@@H]1CC3`, for which the cell viability amounted to 97.6%.

Take `CC(C)NCC(O)COc1cccc2[nH]ccc12` (stereo not drawn): the cell viability came out at 105%.

For `CC(CN(C)C)CN1c2ccccc2CCc2ccccc21` (stereo not drawn), the cell viability worked out at 95.5%.

`CC1=C(/C=C/C(C)=C/C=C/C(C)=C/C=C/C=C(C)/C=C/C=C(C)/C=C/C(=O)[C@]2(C)C[C@@H](O)CC2(C)C)C(C)(C)C[C@H](O)C1`: the cell viability is 99.8%.

Take `C[C@H]1[C@H]2CC[C@H]3[C@@H]4CC=C5C[C@@H](N(C)C)CC[C@]5(C)[C@H]4CC[C@]23CN1C`: the cell viability amounted to 102%.

`C[N+](C)(C)C[C@H](O)CC(=O)[O-]`: the cell viability worked out at 96.9%.

As to `NCCc1ccc(O)c(O)c1`, the cell viability is 89.3% and 104%.

As for `O=C(/C=C/c1cccnc1)NCCCCC1CCN(C(=O)c2ccccc2)CC1`, the cell viability amounted to 12%.

Turning to `CC(C)c1c(O)ccc2c1CCC1[C@@](C)(C=O)CCC[C@]21C` (stereo partly drawn), the cell viability is 96.4%.

Take `CC1(C)O[C@@H]2C[C@H]3[C@@H]4C[C@H](F)C5=CC(=O)C=C[C@]5(C)[C@H]4[C@@H](O)C[C@]3(C)[C@]2(C(=O)CO)O1`: the cell viability amounted to 76.6%.

With `Cn1cnc2c(F)c(Nc3ccc(Br)cc3Cl)c(C(=O)NOCCO)cc21` [AZD6244 (Selumetinib)], the cell viability was 15.5%.

Consider `CN(Cc1cc(Br)cc(Br)c1N)C1CCCCC1`, for which the cell viability worked out at 102%.

In the case of `C[C@H](CS)C(=O)N1CCC[C@H]1C(=O)O`, the cell viability amounted to 100%.

For `C/C=C(\C)C(=O)O[C@@H]1c2c(ccc3ccc(=O)oc23)OC(C)(C)[C@@H]1OC(C)=O`, the cell viability turned out to be 101%.

On to `C[C@]12CCC(=O)C=C1CC[C@@H]1[C@@H]2[C@@H](O)C[C@@]2(C)[C@H]1CC[C@]2(O)C(=O)COP(=O)(O)O`, for which the cell viability is 93.2%.

Consider `CC(=O)OCC(=O)[C@@]1(O)CC[C@H]2[C@@H]3CCC4=CC(=O)C=C[C@]4(C)[C@H]3[C@@H](O)C[C@@]21C`, for which the cell viability came out at 75.2%.

Regarding `C=C[C@@]1(C)CC(=O)[C@@]2(O)[C@](C)(O1)[C@@H](O)[C@@H](O)C1C(C)(C)CC[C@H](O)[C@@]12C` (stereo partly drawn), the cell viability is 98.8%.

On to `CCC1(C)CC(=O)NC1=O` (stereo not drawn), for which the cell viability was determined as 101%.

As for `COc1ccc(C(C)=O)c(OC)c1`, the cell viability was determined as 91.5%.

As for `CC(NCCc1ccc(O)cc1)C(O)c1ccc(O)cc1` (stereo not drawn), the cell viability is 103%.

Regarding `N#CC[C@H](C1CCCC1)n1cc(-c2ncnc3[nH]ccc23)cn1`, the cell viability was found to be 73.1%.

`O=C1CC[C@]23/C=C/C(=O)NCCCCNCCCNC(=O)/C=C/c4ccc(c2c4)O[C@@H]3C1`: the cell viability was 97.1%.

Take `CCCc1nn(C)c2c(=O)[nH]c(-c3cc(S(=O)(=O)N4CCN(C)CC4)ccc3OCC)nc12`: the cell viability stood at 99.1%.

With `CC(=O)O[C@@H]1CC2C(C)(C)[C@H](O)CC[C@]2(C)C2CC[C@@]3(C)[C@H](c4ccoc4)OC(=O)C4OC43[C@@]21C` (stereo partly drawn) [alpha-DIHYDROGEDUNOL], the cell viability is 123%.

As to `CCC(C)(C)C(=O)O[C@H]1C[C@@H](C)C=C2C=C[C@H](C)[C@H](CC[C@@H]3C[C@@H](O)CC(=O)O3)[C@H]21` [Simvastatin (Zocor)], the cell viability is 69.1%.

In the case of `CCC(C)(C)C(=O)O[C@H]1C[C@@H](C)C=C2C=C[C@H](C)[C@H](CC[C@@H]3C[C@@H](O)CC(=O)O3)[C@H]21`, the cell viability stood at 67.5%.

Regarding `CCCCS(=N)(=O)CCC(N)C(=O)O` (stereo not drawn), the cell viability worked out at 124%.

As for `CC(=O)Oc1ccc(C(c2ccc(OC(C)=O)cc2)c2ccccn2)cc1`, the cell viability came out at 97.4%.

In the case of `CC(=O)Oc1cc(C)c2c(c1C=O)Oc1c(c(C)c(OC(C)=O)c3c1C(OC(C)=O)OC3=O)OC2=O` (stereo not drawn), the cell viability is 106%.

Regarding `Nc1ccc(C(=O)O)c(O)c1`, the cell viability was determined as 103%.

For the molecule `O=C(O)c1ccccc1Nc1cccc(C(F)(F)F)c1`, the cell viability was found to be 98.9%.

Turning to `OCCc1ccccc1`, the cell viability is 109%.

In the case of `CC(=O)Nc1ccc(S(=O)(=O)c2ccc(NC(C)=O)cc2)cc1`, the cell viability stood at 99.1%.

Take `O=C1O[C@H]([C@@H](O)CO)C(O)=C1O`: the cell viability was determined as 104%.

Take `Clc1ccc(C(c2ccccc2Cl)C(Cl)Cl)cc1` (stereo not drawn): the cell viability was 103%.

Consider `CN(C)CCOC(=O)C(c1ccccc1)C1(O)CCCC1` (stereo not drawn), for which the cell viability came out at 101%.

For the molecule `Nc1ccc(/N=N/c2ccccc2)c(N)n1`, the cell viability was 108%.

`NCCCS(=O)(=O)O`: the cell viability came out at 90.7%.

Take `Cc1c(S(=O)(=O)O)oc2c1C(=O)C(=O)c1c-2ccc2c1CCCC2(C)C`: the cell viability was determined as 97.6%.

As to `Nc1nc(/C(=C/CC(=O)O)C(=O)N[C@@H]2C(=O)N3C(C(=O)O)=CCS[C@H]23)cs1`, the cell viability was 90%.

For the molecule `Cc1ccc(Nc2nccc(N(C)c3ccc4c(C)n(C)nc4c3)n2)cc1S(N)(=O)=O` [Pazopanib], the cell viability came to 60.1%.

For `COc1cc(Nc2ncc3c(n2)-c2ccc(Cl)cc2C(c2c(F)cccc2OC)=NC3)ccc1C(=O)O` [MLN8237 (Alisertib)], the cell viability came out at 49.6%.

In the case of `C[C@H]1C(=O)CC[C@@H]2[C@]1(C)CC[C@H]1[C@@]2(C)CC[C@@]2(C)[C@@H]3CC(C)(C)CC[C@]3(C)CC[C@]12C`, the cell viability was found to be 113%.

As for `OC(CCN1CCCCC1)(c1ccccc1)c1ccccc1`, the cell viability was found to be 87.8%.

In the case of `CCCCC(=O)N(Cc1ccc(-c2ccccc2-c2nnn[nH]2)cc1)[C@H](C(=O)O)C(C)C`, the cell viability was 93.9%.
